# Experimental data reported in PubChem BioAssay AID504467 (National Center for Advancing Translational Sciences (NCATS), 2011).
# About 7,700 (2.3%) of roughly 330,000 compounds were called active. Inconclusive means that the source gave no clear call. Such entries were picked first, then a sample of the others. Calls follow the shape of the dose curve; as a rule, active = well fitted inhibition curve with a large enough effect; inconclusive = small, poorly fitted or top-dose-only effect, or effect the other way; inactive = flat fitted curve, though single readings scatter. Potencies of inconclusive entries are doubtful fits and often do not repeat.
# Assay: qHTS screen for small molecules that inhibit ELG1-dependent DNA repair in human embryonic kidney (HEK293T) cells expressing luciferase-tagged ELG1; also: nearly all actives have a fitted effect of over 55% in size
# Conditions: HEK293T ELG1-luciferase reporter, luminescence, 16 h, DNA damage induced by 5-fluorouridine; activity change, negative = inhibition: at 46.1 µM (top of the series)
# How it was run: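 Cells (2,000 per well) received 5-fluorouridine plus test compound or DMSO and were incubated 16 hr at 37 °C, 5% CO2. Luciferase activity was read by luminescence 30 min after ONE-Glo addition; signal suppression marked inhibition of damage-induced ELG1 function.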
# % is scaled to controls: 0 for no effect and ±100 for the full control effect; potency is read from the fitted curve at half-maximal effect.
SMILES,Potency,"activity change, negative = inhibition"
COc1ccc(/C=C2\SC(=O)N(CCNC(=O)C3CC(=O)N(c4ccccc4)C3)C2=O)cc1 (stereo not drawn),"inconclusive: 12.6 µM [activator, partial curve, poor fit]",
COCCN1CCN(C(=O)c2cc(COc3ccc(Cl)cc3OC)on2)CC1,"inconclusive: 23.1 µM [activator, partial curve]",
Cc1ccc(/C=C/C(O)=C2/C(=O)N(C)C3(C)CC2c2ccccc2O3)cc1 (stereo not drawn),"inconclusive: 25.9 µM [inhibitor, partial curve]",
COc1ccccc1OCC(=O)N/N=C1\CCc2ccccc21,"inconclusive: 11.6 µM [activator, partial curve]",
OC(COCc1ccc(Cl)cc1)CN1CCN(c2ccccn2)CC1 (stereo not drawn),,inactive: -1.98%
CCCn1c(=O)c2c(C(=O)OCC)cc(-c3ccco3)nc2n(CCC)c1=O,"inconclusive: 25.9 µM [inhibitor, single point]",
Cc1ccc2nc(-c3cccc(Br)c3)cc(C(=O)NC3=NCCS3)c2c1,active: 20.6 µM,
O=C(NCc1ccccc1Cl)c1ccc2ccccc2n1,"inconclusive: 20.6 µM [activator, partial curve]",
CCOC(=O)c1cccc(C2=CC(=O)C[C@H](c3ccc(Cl)cc3)C2)c1,"inconclusive: 18.3 µM [inhibitor, single point]",
Oc1ccc(Cl)cc1CNCC1CCCCC1,"inconclusive: 10 µM [activator, single point]",
COc1ccc(NC(=O)Cn2cc(C(=O)c3ccco3)c3ccccc32)cc1,"inconclusive: 18.4 µM [inhibitor, partial curve, poor fit]",
CCOCCCn1c(=N)c(C(=O)NCc2ccc3c(c2)OCO3)cc2c(=O)n3ccccc3nc21,"inconclusive: 29.1 µM [inhibitor, partial curve, poor fit]",
COc1ccc(-c2[nH]ncc2/C=C(\C#N)C(=O)NC2CC2)cc1,active: 18.4 µM,
COC(=O)c1ccccc1NC(=O)c1cnn2c(C)cc(C)nc12,"inconclusive: 23.1 µM [inhibitor, single point]",
Cc1ccc(C)c(NC(=O)CN(C)C(=O)[C@@H](NC(=O)c2ccc(C(C)(C)C)cc2)C(C)C)c1,"inconclusive: 23.1 µM [inhibitor, partial curve]",
COCC(C)NC(=O)c1cc(-c2ccc(OC)c(OC)c2)on1 (stereo not drawn),"inconclusive: 25.9 µM [activator, single point]",
CCCCCOC(=O)Nc1ccc(S(=O)(=O)Nc2cccc([N+](=O)[O-])c2)cc1,,inactive: -16.2%
CC(Sc1nc(-c2ccccc2)cc(C(F)(F)F)n1)C(=O)N1CCCCC1 (stereo not drawn),"inconclusive: 22.4 µM [inhibitor, single point]",

# 2 of the compounds above, with tabs:
SMILES	Potency	activity change, negative = inhibition
COCCN1CCN(C(=O)c2cc(COc3ccc(Cl)cc3OC)on2)CC1	inconclusive: 23.1 µM [activator, partial curve]	
O=C(NCc1ccccc1Cl)c1ccc2ccccc2n1	inconclusive: 20.6 µM [activator, partial curve]	
